This passage reports binding results from paper PMC12406788.

The chains behind the UniProt entries cited, without tags or fusion partners.
UniProt Q5T9C2: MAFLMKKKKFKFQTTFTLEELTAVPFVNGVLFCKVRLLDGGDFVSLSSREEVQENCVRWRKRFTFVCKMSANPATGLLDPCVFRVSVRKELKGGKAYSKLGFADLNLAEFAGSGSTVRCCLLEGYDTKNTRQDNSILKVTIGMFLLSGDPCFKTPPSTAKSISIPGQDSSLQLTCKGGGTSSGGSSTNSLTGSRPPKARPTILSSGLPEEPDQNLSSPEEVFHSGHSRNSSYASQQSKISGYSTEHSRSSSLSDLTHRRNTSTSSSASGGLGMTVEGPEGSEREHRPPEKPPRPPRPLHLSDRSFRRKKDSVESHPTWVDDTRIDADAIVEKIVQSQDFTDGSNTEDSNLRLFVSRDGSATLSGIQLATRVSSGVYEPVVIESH

No constants are given. Whether binding was seen depends on the method and setting.

For this assay, the target named is FAM102A-iRFP (human) (UniProt Q5T9C2). Briefly: recruitment (relocalisation) in cells seen by fluorescence microscopy; co-expression in COS-7 cells, where BLTP2 alone is not concentrated at ER-PM contacts; FAM102A or FAM102B at the PM brings tagged BLTP2 to PM patches (ER-PM contacts); spinning-disk confocal; also seen in U2OS, MDA-MB-231 and HeLaM cells.

Regarding “BLTP2^Halo-△FBM (BLTP2 deletion construct lacking the FAM-binding motif) (from UniProt Q14667-1)”, the binding result was “no binding”.
